# Results published in article doi:10.1101/2020.01.28.924217.
# Key:
# [1] = target: T1, PfaF (Photobacterium profundum SS9) (UniProt Q6LVL5); assay: competition with a labelled probe; details: unlabeled same probe, ~80-fold molar excess, partially reversed binding
# T1 sequence (looked up, limits assumed): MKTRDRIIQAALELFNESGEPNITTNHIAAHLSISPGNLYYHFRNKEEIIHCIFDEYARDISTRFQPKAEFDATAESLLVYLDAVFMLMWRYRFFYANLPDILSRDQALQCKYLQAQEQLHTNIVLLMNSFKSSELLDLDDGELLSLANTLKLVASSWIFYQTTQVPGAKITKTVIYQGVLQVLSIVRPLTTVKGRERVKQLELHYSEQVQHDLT
# [2] = target: T1, PfaF (Photobacterium profundum SS9); assay: DNase I footprinting; details: 22 bp protected, -182 to -204 of the promoter probe as stated, coding strand
sequence,measurement,setting,value
AACTGGTCTTAAGTGATCCAACCTCTTGCTCCAGTGATTGTAACGAAAAGCGTCCTCGGGTAGTCTGCTCAACCATTAACTGATTAAGCATGCTTTCATTAGGGATGGTAAGTGCCTCCTTATTTGATAATCGCAGCAGTAGTACAGCAGGATTATGATGGATATTACCGTTACGAATGAAAGCACAACTGTGCATCGTCGAATGTCAAAAAAATGCAGTCATAAATATGCATAATCTTTCTACTCGTACATTCCGAAGCCATGACGCTGCCAATCAATTTTTAGCGCCTGTACTCACACATGCGTTATGCCATTTTTTCACTCTTATTTTTCACCAGTTGCCTAATCGCAACGCCCACACCGAATATATAACGCCCAGCTCTTGGGTGTTAAGCGGAGA (double strand) [pfaA promoter probe (400 bp)],binding result,[1],binds
same,binding result,[2],binds

# For at least one entry, the source does not settle the construct or the ends of the probe. Protein sequences can lack the tags named with them.
